PubChem BioAssay AID504804, Drosophila RNAi Screening Center | 2011
Aim: 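Fly genes whose loss lessens doxorubicin-driven cell death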 (primary screen). Cell system: Drosophila Kc cells. Reagent: long dsRNA against Drosophila genes, 0.5 µg dsRNA per well. Time to read-out: 96 h (48 h knock-down, then 48 h drug). Challenge: doxorubicin 5 µg/ml for 48 h, added 48 h after dsRNA. Measurement: 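Viability measured as cellular ATP by luminescence after 48 h knock-down then 48 h doxorubicin at 5 µg/ml; unnormalised plate counts for each replicate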. Direction: raw ATP luminescence: higher = more viable cells, protection from doxorubicin. Active means: 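Active when both duplicate wells lie at least 2 SD above the plate mean and protection is confirmed by rescreening and independent dsRNAs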.
The deposit covers about 19,000 reagents; shown is a random part of those that have a named target and a result. Of all reagents, 47 (0.25%) are marked active. 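Signals are raw, not normalised; exact z-scores behind calls not deposited; actives needed confirmation, so some wells reaching 2 SD are inactive.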 A plus sign joins genes that one reagent is predicted to hit. Reagent sequences are not shown.

The opening 3 records, to show the layout:
Gene	DRSC id	SD above plate mean	raw ATP luminescence, replicate 1	raw ATP luminescence, replicate 2	outcome
CG14015	DRSC02346		19577	26540	inactive
CG31343	DRSC15887		40770	46490	inactive
Mal-A7 (Maltase A7)	DRSC06077		29020	71910	inactive

Results, repeating the preview:
Gene	DRSC id	SD above plate mean	raw ATP luminescence, replicate 1	raw ATP luminescence, replicate 2	outcome
CG14015	DRSC02346		19577	26540	inactive
CG31343	DRSC15887		40770	46490	inactive
Mal-A7 (Maltase A7)	DRSC06077		29020	71910	inactive
Rbp1 (RNA-binding protein 1)	DRSC16817		55600	21023	inactive
Isha (Insulator su(Hw) mRNA adaptor)	DRSC04456		69193	51767	inactive
CG34025	DRSC08014		1.52e5	1.23e5	inactive
Ugt36D1 (UDP-glycosyltransferase family 36 member D1)	DRSC02600		90543	72620	inactive
Oatp58Da (Organic anion transporting polypeptide 58Da)	DRSC04365		35863	36723	inactive
Snap24 (Synaptosomal-associated protein 24kDa)	DRSC16864		53657	54847	inactive
CG15048 (retired record)	DRSC19624		2.45e5	2.40e5	inactive
whe (what else)	DRSC20537		2.13e5	2.45e5	inactive
CG17974	DRSC04299		53080	58960	inactive
Ptpmeg2 (Protein tyrosine phosphatase Meg2)	DRSC18277		3.52e5	2.96e5	inactive
Ptpmeg2 (Protein tyrosine phosphatase Meg2)	DRSC18278		3.64e5	3.27e5	inactive
Obp50d (Odorant-binding protein 50d)	DRSC05483		1.03e5	1.11e5	inactive
Tbcb (Tubulin-binding cofactor B)	DRSC06067		57877	60397	inactive
Agpat2 (1-Acylglycerol-3-phosphate O-acyltransferase 2)	DRSC03532		1.07e5	79450	inactive
P58IPK	DRSC16404		55360	55493	inactive
nst (nesthocker)	DRSC09755		46283	57297	inactive
CG31058 (retired record)	DRSC15840		15070	18760	inactive
vir (virilizer)	DRSC04377		54777	65293	inactive
CG15336	DRSC18019		34320	48630	inactive
Atg8a (Autophagy-related 8a)	DRSC18024		3.54e5	3.20e5	inactive
EMC2B + EMC2A	DRSC15241		70060	50000	inactive
CG33922	DRSC00050		3.22e5	3.45e5	inactive
CG10979	DRSC12153		69917	68723	inactive
Fili (Fish-lips)	DRSC03907		72663	60977	inactive
Fili (Fish-lips)	DRSC04132		60183	46760	inactive
Fili (Fish-lips)	DRSC04445		65123	56793	inactive
COX5B (Cytochrome c oxidase subunit 5B)	DRSC02115		19433	25260	inactive
CG17122	DRSC10245		73957	64557	inactive
CG10553	DRSC14254		70610	61880	inactive
CG16789	DRSC15155		58697	56310	inactive
CR41501 (pseudo)	DRSC07785		1.76e5	1.19e5	inactive
CG2652	DRSC18501		2.16e5	2.57e5	inactive
CG32645	DRSC19683		3.67e5	3.72e5	inactive
CG32645	DRSC19889		3.93e5	3.02e5	inactive
Gbeta5 (G protein beta subunit 5)	DRSC17754		36280	45150	inactive
CG4069	DRSC10396		30827	29807	inactive
CG30495	DRSC06703		36670	59120	inactive
CG15422	DRSC00436		26293	32257	inactive
CG31867	DRSC03338		37390	62167	inactive
CG12362	DRSC09884		60083	57400	inactive
CG18418	DRSC08535		31883	25727	inactive
CG18599	DRSC15357		66350	80310	inactive
Orco (Odorant receptor co-receptor)	DRSC12358		60850	52610	inactive
EndoGI (Endonuclease G inhibitor)	DRSC01964		56133	74803	inactive
Efhc1.2 (EF-hand domain containing 1.2)	DRSC06027		49553	54230	inactive
Gpo2 (Glycerophosphate oxidase 2)	DRSC06822		60900	79563	inactive
CG32237	DRSC08312		92103	91410	inactive
CG32237	DRSC08315		96167	91520	inactive
CG9815	DRSC04567		61627	49087	inactive
CG33225	DRSC03881		69837	48787	inactive
CG34326 (retired record)	DRSC19165		2.18e5	2.38e5	inactive
djl (don juan like)	DRSC12578		53573	51053	inactive
CG9514	DRSC20190		3.27e5	3.01e5	inactive
CG9514	DRSC20191		3.01e5	3.03e5	inactive
NetA (Netrin-A)	DRSC20261		3.43e5	3.33e5	inactive
CG9114	DRSC20155		2.30e5	2.47e5	inactive
CG6236	DRSC15999		46403	22657	inactive
CG11588	DRSC09145		1.64e5	1.91e5	inactive
CG11588	DRSC09846		86667	73460	inactive
CG34244	DRSC09304		76707	78313	inactive
CG6216	DRSC10606		92413	67533	inactive
CG15631	DRSC00466		27637	37387	inactive
CG43867	DRSC17582		2.49e5	2.35e5	inactive
CG43867	DRSC17836		44220	49440	inactive
CG43867	DRSC17837		45760	51500	inactive
CG43867	DRSC17943		40610	45090	inactive
Hsp67Bc (Heat shock gene 67Bc)	DRSC11193		78040	80053	inactive
Galphaf (G protein alpha subunit f)	DRSC11171	at least 2 SD above plate mean	95123	67170	active
CG12551 (retired record)	DRSC04857		63277	53327	inactive
CG12551 (retired record)	DRSC04864		60883	48683	inactive
CG9993	DRSC04599		54757	59250	inactive
CG31871	DRSC02567		43063	63047	inactive
CG31871	DRSC02571		42507	67673	inactive
Cp16 (Chorion protein 16)	DRSC11119		85820	96143	inactive
Pgm1 (Phosphoglucose mutase 1)	DRSC10490		20203	21860	inactive
CG31313	DRSC13044		1.44e5	1.42e5	inactive
Ttc26 (Tetratricopeptide repeat domain 26)	DRSC15591		1.70e5	2.02e5	inactive
CG8149	DRSC16391		57643	48407	inactive
Tg (Transglutaminase)	DRSC03047		37037	52087	inactive
Grl65a (Gustatory receptor-like 65a)	DRSC08837		1.67e5	2.10e5	inactive
alpha-Man-Ia (alpha-Mannosidase class I a)	DRSC17642		79303	92937	inactive
alpha-Man-Ia (alpha-Mannosidase class I a)	DRSC18162		2.97e5	2.69e5	inactive
alpha-Man-Ia (alpha-Mannosidase class I a)	DRSC18163		2.95e5	2.90e5	inactive
alpha-Man-Ia (alpha-Mannosidase class I a)	DRSC18735		3.20e5	2.73e5	inactive
